# The list shows a part of the results. These are raw signals, not scaled to a control.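 Primary screen: polymyxin B was added at a level permeabilizing Salmonella outer membranes while sparing inner membranes. DMSO wells, both with and without polymyxin B, established maximum growth. Plate-to-plate variation meant each plate was ranked on its own, and the lowest-OD600 compounds were selected as hits.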
# Test system: Salmonella enterica serovar Typhimurium SL1344
# Assay: bacterial growth OD600 after 18 h with compound and polymyxin B; higher = more bacterial growth (less inhibition)
# Settings: 50 µM, Mueller-Hinton broth
Compound,bacterial growth OD600 (polymyxin B 0.75 µg/mL),bacterial growth OD600 (polymyxin B 1 µg/mL)
Cc1nc(C)c(C(=O)N2CCOc3ccc(C(O)C(c4ccccc4)c4ccccc4)cc3C2)s1 (stereo not given),0.743,
COCCN1C(=O)CC(CC(=O)N2CC3(C)CC2CC(C)(C)C3)(c2ccccc2OC)C1=O (stereo not given),0.009,
COc1ccccc1CCc1nnc(CCC(=O)NCc2ccc(F)cc2F)o1,0.772,
CC(C)CC(=O)Nc1ccnn1C1CCN(Cc2ccc(CO)o2)CC1,,0.93
O=C(CCC1(Cc2ccccc2)CCC(=O)N1)NCc1cnn(-c2ccccc2)n1 (stereo not given),0.735,
CC(C)N1CCN(C(=O)CC(c2cccc(O)c2)c2ccccc2Cl)CC1 (stereo not given),,1.02
Cc1ccccc1C1CCCN(Cc2nc(CC3CC3)no2)C1 (stereo not given),,0.858
CSc1ccc(CNC(=O)CCCn2nnnc2CN2CCC(C)CC2)cc1,,0.801
O=C1O[C@@H]2CN(Cc3ccc(C#CCCO)cc3)C[C@@H]2N1C1CCCC1,,0.888
Cc1ccc2c(c1)CN(CCNC(=O)c1ccccc1C(F)(F)F)CC(C)O2 (stereo not given),0.686,
COC(=O)C1CCN(C(=O)c2cn(Cc3cccc4ccccc34)nn2)CC1,,0.814
CCNC(=O)N1CCC2(CCCN(Cc3ccc(F)cc3)C2=O)C1 (stereo not given),,1.12
CN1CCCC(CNc2ccc(-c3nc(-c4ccccc4F)no3)cn2)C1 (stereo not given),,0.943
CC(CCCC(C)(C)O)NCc1c(C(=O)N2CCCC2)nc2ccccn12 (stereo not given),,0.988
O=C(c1ccc(-c2ccco2)cc1)N1CCC2(CCCN(CC3CC3)C2)C1 (stereo not given),,0.897
CCOC(=O)C1(Cc2ccccc2C(F)(F)F)CCN(Cc2cccc(O)c2)CC1,,0.652
Cc1cc(OCc2cc(C(=O)N3CCN(CC4CC4)CC3)no2)cc(C)c1Cl,,0.601
CCOc1ccc(CN2CCCC(CO)(Cc3ccccc3F)C2)cc1 (stereo not given),0.924,
COc1cc(OC)c(OC)cc1CN1CC[C@@H](N2CCN(C)CC2)[C@H](O)C1,0.784,
CC(C)Cc1nc2cc(NS(=O)(=O)N(C)C)cc(C(=O)NC3CCCCCC3)c2n1C,0.775,

# Three compounds already listed, sorted by molar mass, rising:
Compound,bacterial growth OD600 (polymyxin B 0.75 µg/mL),bacterial growth OD600 (polymyxin B 1 µg/mL)
CCNC(=O)N1CCC2(CCCN(Cc3ccc(F)cc3)C2=O)C1 (stereo not given),,1.12
CCOC(=O)C1(Cc2ccccc2C(F)(F)F)CCN(Cc2cccc(O)c2)CC1,,0.652
CC(C)Cc1nc2cc(NS(=O)(=O)N(C)C)cc(C(=O)NC3CCCCCC3)c2n1C,0.775,
